PubChem BioAssay AID1159592, NIAID – 2016
The deposit covers 756 reagents; below is an unselected part. Over the whole deposit, 147 (19%) are marked active. 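Active covers both loss and gain of p65 entry; negative z means weaker NF-kB activation, positive means more nuclear p65.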 The numbers tell different reagents against one gene apart. Not given: the amount of reagent.

Purpose: 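Which core TLR components make p65 move nuclear in R848-treated mouse macrophages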
System: RAW264.7 macrophages from mouse bearing reporters for p65 (GFP) and the Tnf promoter (mCherry)
Reagent: single siRNA against mouse genes
Timing: 48 to 72 hours after siRNA transfection
Treatment: R848 TLR ligand for 40 minutes before fixation; dose not given
Detection: 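Nuclear over cytoplasmic GFP-p65 signal imaged 40 minutes after R848, plate-normalised by median and MAD, given as robust z versus negative controls, mean of replicates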
Reading the numbers: NF-kB translocation z-score: higher = more p65 moved into the nucleus than in negative-control wells
Rule for the call: 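a call of active needs an averaged z beyond 1.5 in either direction; tiers of absolute z at 1, 1.5, 2 and 2.5 are also set by the depositor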
Meaning of the calls: active = strong change, either direction; inactive = little change

gene	reagent	NF-kB translocation z-score, replicate mean	Outcome
Ifnb1	1	1.12	inactive
Ifnb1	2	-0.522	inactive
Ifnb1	3	1.27	inactive
Ifnb1	4	0.107	inactive
Ifnb1	5	-0.276	inactive
Ifnb1	6	-0.828	inactive
Akt2	1	-1.19	inactive
Akt2	2	1.02	inactive
Akt2	3	0.989	inactive
Akt2	4	-1.59	active
Akt2	5	0.227	inactive
Akt2	6	-0.238	inactive
Elk1	1	-0.555	inactive
Elk1	2	-0.979	inactive
Elk1	3	-0.657	inactive
Elk1	4	-2.83	active
Elk1	5	-3.06	active
Elk1	6	-0.586	inactive
Fadd	1	-1.05	inactive
Fadd	2	-0.704	inactive
Fadd	3	-1.47	inactive
Fadd	4	-0.61	inactive
Fadd	5	-0.476	inactive
Fadd	6	0.147	inactive
Dab2ip	1	0.449	inactive
Dab2ip	2	-0.0586	inactive
Dab2ip	3	-0.994	inactive
Dab2ip	4	-2.43	active
Dab2ip	5	-0.915	inactive
Dab2ip	6	-0.702	inactive
Ccl3	1	-2.86	active
Ccl3	2	-0.455	inactive
Ccl3	3	-0.897	inactive
Ccl3	4	1.19	inactive
Ccl3	5	0.124	inactive
Ccl3	6	-1.59	active
Ly96	1	-0.0719	inactive
Ly96	2	0.371	inactive
Ly96	3	0.12	inactive
Ly96	4	-0.0885	inactive
Ly96	5	-0.636	inactive
Ly96	6	0.0551	inactive
Sigirr	1	-1.07	inactive
Sigirr	2	-2.68	active
Sigirr	3	-0.717	inactive
Sigirr	4	-1.81	active
Sigirr	5	-0.944	inactive
Sigirr	6	-0.706	inactive
Mapk12	1	-0.0259	inactive
Mapk12	2	-0.82	inactive
Mapk12	3	-1.45	inactive
Mapk12	4	0.283	inactive
Mapk12	5	-0.142	inactive
Mapk12	6	-0.646	inactive
Jun	1	0.472	inactive
Jun	2	-2.94	active
Jun	3	-0.488	inactive
Jun	4	-1.85	active
Jun	5	-1.71	active
Jun	6	-0.423	inactive
Map2k6	1	-1.56	active
Map2k6	2	-1.26	inactive
Map2k6	3	-0.0899	inactive
Map2k6	4	0.755	inactive
Map2k6	5	-1.52	active
Map2k6	6	0.0324	inactive
Map2k7	1	1.18	inactive
Map2k7	2	-0.281	inactive
Map2k7	3	-0.413	inactive
Map2k7	4	-1.25	inactive
Map2k7	5	-1.03	inactive
Map2k7	6	-0.85	inactive
Mapk8	1	0.774	inactive
Mapk8	2	-1.34	inactive
Mapk8	3	-1.04	inactive
Mapk8	4	-0.534	inactive
Mapk8	5	-1.56	active
Mapk8	6	-0.981	inactive
Map2k1	1	0.641	inactive
Map2k1	2	0.182	inactive
Map2k1	3	-0.583	inactive
Map2k1	4	1.78	active
Map2k1	5	0.584	inactive
Map2k1	6	1.05	inactive
Ptpn6	1	0.514	inactive
Ptpn6	2	0.367	inactive
Ptpn6	3	-3.02	active
Ptpn6	4	-2.08	active
Ptpn6	5	-1.49	inactive
Ptpn6	6	-1.56	active
Il1b	1	0.819	inactive
Il1b	2	-1.17	inactive
Il1b	3	0.284	inactive
Il1b	4	-0.28	inactive
Il1b	5	-0.824	inactive
Il1b	6	-0.218	inactive
Tlr7	1	-2.2	active
Tlr7	2	-3.41	active
Tlr7	3	-3.1	active
Tlr7	4	-1.15	inactive
Tlr7	5	-3.85	active
Tlr7	6	-2.19	active
Akt3	1	0.214	inactive
Akt3	2	-0.348	inactive
Akt3	3	-0.642	inactive
Akt3	4	-1.63	active
Akt3	5	-0.00428	inactive
Akt3	6	-1.75	active
Elk4	1	-2	active
Elk4	2	-0.24	inactive
Elk4	3	-0.518	inactive
Elk4	4	-0.136	inactive
Elk4	5	0.0152	inactive
Elk4	6	-0.742	inactive

6 neighbouring reagents already listed:
gene	reagent	NF-kB translocation z-score, replicate mean	Outcome
Tlr7	4	-1.15	inactive
Tlr7	5	-3.85	active
Tlr7	6	-2.19	active
Akt3	1	0.214	inactive
Akt3	2	-0.348	inactive
Akt3	3	-0.642	inactive
